Measurements from publication PMC7515705.

Legend:
[1] = molecular target: T1, YBEY-3 × FLAG (human) (UniProt P58557); assay: co-IP; α-FLAG antibody and protein A-sepharose on mitochondrial lysates of SAL001 cells expressing YBEY-3 × FLAG; parental cells as control; western blotting of lysate, flow-through, wash and IP fractions
T1 sequence: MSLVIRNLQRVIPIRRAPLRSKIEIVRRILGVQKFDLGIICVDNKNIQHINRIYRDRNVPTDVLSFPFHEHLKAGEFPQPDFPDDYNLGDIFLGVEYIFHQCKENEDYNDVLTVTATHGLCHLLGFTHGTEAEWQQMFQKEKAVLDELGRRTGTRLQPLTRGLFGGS

[2] = molecular target: T2, YBEY-His6 (human) (UniProt P58557); assay: pull-down; cleared lysates of E. coli co-expressing YBEY-His6 and p32 and of E. coli expressing uS11m mixed 1:1, 30 min at 4°C, then Ni-NTA agarose, native conditions, step elution with imidazole
T2 sequence: T1 sequence

Substance	binding [1]	binding [2]
mS35	no binding	
uS11m (mature form, tagless) (human)		binds
uS11m, endogenous	binds	

No constants are given. Whether binding was seen depends on the method and setting. In cells and extracts the contact can be indirect. Binding can be weak; no strength is given. Tags and fused reporters may be left off the sequences shown.
